Results reported in PMC5744401.
For at least one entry, the source does not settle the construct or the ends of the probe. For some assays here: Negatives hold for the conditions tested.

Legend:
[1] = target: His6-AvaR1 (Streptomyces avermitilis) (UniProt Q82H41); assay: EMSA; conditions: EMSA: 0.3 nM DIG-labeled probe, pH and temperature as in Zhu et al. 2016 (not given), recombinant protein, protein details: His6, label: 3' DIG, probe letters rebuilt from the primers and the genome
[2] = target: His6-AvaR1 (Streptomyces avermitilis) (UniProt Q82H41); assay: DNase I footprinting; conditions: recombinant protein; protein details: His6; label: 5' FAM; probe letters rebuilt from the primers and the genome
[3] = target: T1, His6-AvaR2 (Streptomyces avermitilis) (UniProt Q82H44); assay: EMSA; conditions: 50, 200 nM protein; EMSA: 0.3 nM DIG-labeled probe; pH and temperature as in Zhu et al. 2016 (not given); recombinant protein; protein details: His6; label: 3' DIG; probe letters rebuilt from the primers and the genome
T1 sequence: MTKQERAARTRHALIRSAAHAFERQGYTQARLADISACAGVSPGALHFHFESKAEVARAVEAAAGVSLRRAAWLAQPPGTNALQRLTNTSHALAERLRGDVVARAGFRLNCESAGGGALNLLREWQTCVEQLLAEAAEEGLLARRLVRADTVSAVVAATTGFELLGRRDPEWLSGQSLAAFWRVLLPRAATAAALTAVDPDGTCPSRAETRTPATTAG

| Sequence | binding result ([1]; 50, 200 nM protein) | further results |
| --- | --- | --- |
| ATGGTCGGGAACCTCCGCAATCCGGGCCGGGCGGCCCAGCTGTCGTGGCGATCTACTCCAGGAAACGTAGACCTTTTTCTGCCACTTGTCCGAGCTATGCAGACACCCCGATCCCCTAAGAAATGAACACCCTTGGGAACGGCACAGCCCAGGGGTGGATAGGGGTATTCGCCGCCGCCGCGCCGTCATTAGCTTTGAAGAGTTGAAGACGTTCAAGACATTGATGCCCGGCCGTCAGCGGATTTCTCGCGCTCCTTTCATTCTTCGACGCTGCATTGCAGCTCTCATCATGTCCGCACGGCCGCCGAGCATTGCCTAGCGGTGAGGACACAG (double strand) [aveA1p] |  | binding result ([1]; 10-100 nM protein): no binding |
| CCTTGTGGGAGCCGTAGTAGGCGGTGAGACCGCTCACGTCGATTCGCTTGGCCATGTGAATCACTGCTTCTTTCGAGAATTCGGGTCGCTGATTGGCCGCGTCAGCGGCCCGCCACGCGGCAGAGCCGCTCATCGAGTCCGTGGGGCCTTCCAGCGCGCGATGCCGCGCGCCGCCAGGTTGAGGATCATGACGAAGGCGATGAGG (double strand) [pstBp] | no binding |  |
| CGCCTGTGTGTAGCCCTGCCGTTCGAAGGCGTGGGCGGCGGAGCGGATGAGGGCGTGGCGGGTGCGGGCGGCGCGTTCCTGTTTCGTCACCGGTGACTCCTCGCGGAAGGCGGCTGACCAGAGGGCCCTGCAAGAAACCAGCATAGCGGTTTGTTTGTGGCGCCCGTCACCACTTCGCCGACGCGGTACCCCCGGAGGCCAGGCACCGGTCACTGCCGCCGCCCGCGCTGCCCGCTGCCGCCGCCGAGCCGTACCGCGCGGCTCGGGCGTCGCGCATGCCGTCAGGCCCCCGGCACCTCCCTGAACCGGCCCGCGATATGCAGATCCGCCTCGATCCGCGAGGCCGTCGCGAGCAGTTCCGGCAGGACCTCCTCGACACATTCCTCGGGCGTA (double strand) [avaR2 footprint probe] |  | binding result [2]: binds |
| GAGTGCGAGATGTTGTTGCCGAAGCCCGGCCCCTTGCCGCAGACGTCGCAGTTGGCAGCCACGGGTCACTCCAAAGACTTCAGATGCACTTACGGTTGATCCCGGCATGCCGGAATCGAGATCGGAGGATCTGAGTGGCGGTGCCAGGGGGAAGGCCCGATCAGATCGGGCAACCGGAGCAGCATACAACGACT (double strand) [rpmBp] | binds |  |
| TCATGCGTCCAGCCTAGGCCTCCCGGTGGTCGGCCGAATCGCCTCGGGAGGGGGGAGGCGTTGCCGCCGGGCGGGTGGGGGCTGCCCGTGGCGGGGGCTCGCCGGCCGCCTCGCGGCCTGTTTCCCACCGCCCTGCCGGTTTCCCACCGCCCTGCCCGTCCCGTGCCTCTGTCTCGCGCCTGCCCGTCCGGCGGGCGGCGTTCCAGGTCGCCTACGCGGCCCGAACGCCCCTCTCCGCCACCCTGTG (double strand) [folP2p] | binds |  |
| TGCACATCAAGAAGGGCGATCCGATCCTGGTCTCCTTCGCCGCCGCCGCGGCGGACCCCGAGCCGTACGGGGCGGACGCGGCCGTCTTCGACGTACTGCGGCCCGGCCGCCGCGACGACCTGGCCTTCGGATACGGGGTGCACCGCTGCCTGGGCGCTCCGCTGGCACGCCTGGAGGCGACCACCGCGCTGTCGGCGCTCTTCACGCGCTTCCCGGACCTGACGTCCGTTCAGCCGACGGAAGAGCTCGAGCCCGTACGGTCCTTCATCGTCAACGGGTACGGCTCCCTGCCGGTCGTCCTGCGGCCGCACTGATGCGCGAGAAAACCGCACAAGCGGTTTGTTAAAGTTGCTGGACCCCCATCAGCAACGGAGCGCCCGATGGTCAAGCAGGTCAGACAGGAACGCGCGATCCGCACGCGCAACGCCTTGATCGAGTCC (double strand) [avaR3 footprint probe] |  | binding result [2]: binds |
| TTCAAGAACTTCCGACGGTTCAACGGCATGTCTCGTACTCCTCGGGAAAGGCCAATGACGCGCGTAGATTCTGGCCCACCAGCCACACCCCCGAACAGCCCCCGCAGGTTGCGATCTGATGACCAGTAGCCACCCCACCGCACCCCCCAGTGACAGAGTGGGACGTATGACCCCCACCGCGGAGGAACCCCGCCCCACAGGCCCCTACGGCACCCCCGAAGCCCCCCGCATCGCCGTCCGCGGCGAAGCCCACCTCGAAGTCGACCCCGAGATCGCCCGCATAGGCATCACCGTCAGC (double strand) [cpdBp] | binds | binding result [3]: no binding |
